Results deposited as PubChem BioAssay AID602196 (INSERM, 2012).
The deposit covers about 23,000 reagents; below is a random part of them. In the full data, 455 (2%) were called active. 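Active includes both protection and sensitisation; some change values fall well beyond the stated -50 to +50 range.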 Entries without a mark were called inactive. Reagents against one gene are numbered here. Not given: the amount of reagent.

- Test: 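Knock-downs that protect lung cancer cells from cisplatin or sensitise them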
- Cell system: human A549 lung cancer cells
- Reagents: siRNA pair against human genes
- Timing: 48 h transfection before cisplatin; time from cisplatin to read-out not stated
- Treatment: cisplatin at a dose killing half of control-siRNA cells; exact dose and duration not given
- Read-out: 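Shift in cisplatin death relative to control siRNA, from -50 (all cells die) to +50 (no cells die); siRNAs harmful on their own scored 0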
- Scale: two-siRNA summed score (-2 to +2): higher = both siRNAs protect from cisplatin killing; -2 means both sensitise; mean protection from cisplatin (shift in death) and protection from cisplatin (shift in death), siRNA C and protection from cisplatin (shift in death), siRNA D: higher = protection from cisplatin killing
- Call rule: 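Each siRNA scores 0 if harmful alone by LDH or WST-1, otherwise +1 if it reduces and -1 if it increases cisplatin killing; a gene is active when both siRNAs agree (sum +2 or -2)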
- Calls: active = both siRNAs shift cisplatin killing the same way; inactive = no consistent shift, or siRNA harmful alone

gene symbol | reagent | two-siRNA summed score (-2 to +2) | mean protection from cisplatin (shift in death) (%) | protection from cisplatin (shift in death), siRNA C (%) | protection from cisplatin (shift in death), siRNA D (%)
LOC402592 | 1 | 0 | -0.9 | -0.5 | -1.3
SHLD2 | 1 | 0 | 2.4 | -0.3 | 5
FGF2 | 1 | 0 | 0.1 | 1.2 | -1
FLJ13105 | 1 | 0 | 9.2 | 6.6 | 11.9
CLDND1 | 1 | 0 | 16.3 | 34.7 | -2.1
NDUFV1 | 1 | -1 | -14 | -28.3 | 0.2
LOC440927 | 1 | 0 | 26.8 | 27.7 | 25.9
OR6C74 | 1 | 0 | 7.3 | 1.5 | 13.2
OR8D4 | 1 | 1 | 13.3 | 16.6 | 10
LOC392188 | 1 | 0 | -2.4 | -5.2 | 0.5
LINC01011 | 1 | 1 | 21.1 | 37.3 | 5
SCARF1 | 1 | -1 | -7.8 | 4.7 | -20.2
PRUNE2 | 1 | 0 | 4 | 6.9 | 1.1
PRUNE2 | 2 | 0 | 12.5 | 9.7 | 15.4
LOC283029 | 1 | 0 | 5.5 | 0.8 | 10.2
LOC440483 | 1 | 0 | 7.1 | 5.5 | 8.8
HPSE | 1 | 0 | 15 | 36.2 | -6.2
LOC387983 | 1 | 0 | 10.5 | 12.9 | 8.1
RLIM | 1 | 0 | -26.2 | -43.9 | -8.6
MSN | 1 | 0 | -9.5 | -11.6 | -7.4
H1-4 | 1 | 0 | 2.6 | 12.2 | -6.9
NRGN | 1 | 0 | -4.7 | 4.8 | -14.2
LEPROTL1 | 1 | 0 | 7.7 | 4 | 11.4
GALNT8 | 1 | 0 | -1.2 | 4.6 | -7
SLC33A1 | 1 | -1 | -6.5 | -12.2 | -0.8
MPND | 1 | 0 | 0.9 | -7.1 | 8.9
LOC390598 | 1 | 0 | 11.5 | 28.5 | -5.4
LOC387763 | 1 | 1 | 12.4 | 4.7 | 20.1
LOC399851 (retired record) | 1 | 1 | 8.9 | 17.5 | 0.4
ELAC1 | 1 | 0 | 4.4 | 14 | -5.2
NPTN | 1 | 0 | 2.8 | 0.8 | 4.8
ATP5ME | 1 | 0 | 8.4 | 20.1 | -3.3
RAB3IP | 1 | 0 | -2.7 | 3.4 | -8.7
SLC38A6 | 1 | 0 | -1.8 | 10 | -13.6
FATE1 | 1 | 0 | 8 | 12.3 | 3.7
LOC442717 | 1 | 0 | 8.5 | 9.8 | 7.2
TRIM14 | 1 | 1 | 16 | 11.1 | 20.8

An excerpt from above, reduced to “mean protection from cisplatin (shift in death) (%)”.
RLIM: -26.2
MSN: -9.5
H1-4: 2.6
NRGN: -4.7
LEPROTL1: 7.7
GALNT8: -1.2
SLC33A1: -6.5
MPND: 0.9
LOC390598: 11.5

The results go on:
gene symbol | reagent | two-siRNA summed score (-2 to +2) | mean protection from cisplatin (shift in death) (%) | protection from cisplatin (shift in death), siRNA C (%) | protection from cisplatin (shift in death), siRNA D (%)
ZFP41 | 1 | 0 | 8.6 | 3.2 | 14
FLJ45966 | 1 | 1 | 10.1 | 14.9 | 5.3
COL9A2 | 1 | 0 | 0.5 | -2.7 | 3.6
RPL10 | 1 | 0 | 7.2 | -7.7 | 22.1
RYR3 | 1 | 0 | -1.1 | 4.3 | -6.5
LOC389243 | 1 | 0 | 8.1 | 16.4 | -0.3
LOC440116 | 1 | 1 | 21.3 | 14.6 | 27.9
OBP2A | 1 | 0 | -0.5 | -6.2 | 5.2
BMP7 | 1 | -1 | -24.4 | -16.9 | -31.9
IL34 | 1 | 0 | 7.7 | 13.8 | 1.6
PEX5L | 1 | 0 | -20 | -3.1 | -36.9
CCDC186 | 1 | 0 | 7.8 | 12 | 3.6
LOC389253 | 1 | 0 | -14.4 | -14.2 | -14.6
VPS26A | 1 | 0 | -5.2 | -17.2 | 6.7
LINC03122 | 1 | 0 | 6.5 | 9.8 | 3.3
LOC133748 | 1 | 0 | 5.1 | 7.1 | 3.1
ASPHD1 | 1 | 0 | 10.3 | 18.1 | 2.5
MAP6D1 | 1 | 0 | 3.9 | 5.3 | 2.4
LOC389137 | 1 | 0 | 7.9 | -2.1 | 17.9
GPBAR1 | 1 | 0 | 7.1 | 13.3 | 0.9
